The values that follow come from the supplement of paper PMC12819154, “High-throughput peptide-centric local stability assay extends protein–ligand identification to membrane proteins, tissues and bacteria” (Nature Structural & Molecular Biology, 2025).

Amino acid sequences for entries named in this document (tags omitted). A change or cut given only in a name is not applied to a line headed by its entry.
UniProt P0AEJ4: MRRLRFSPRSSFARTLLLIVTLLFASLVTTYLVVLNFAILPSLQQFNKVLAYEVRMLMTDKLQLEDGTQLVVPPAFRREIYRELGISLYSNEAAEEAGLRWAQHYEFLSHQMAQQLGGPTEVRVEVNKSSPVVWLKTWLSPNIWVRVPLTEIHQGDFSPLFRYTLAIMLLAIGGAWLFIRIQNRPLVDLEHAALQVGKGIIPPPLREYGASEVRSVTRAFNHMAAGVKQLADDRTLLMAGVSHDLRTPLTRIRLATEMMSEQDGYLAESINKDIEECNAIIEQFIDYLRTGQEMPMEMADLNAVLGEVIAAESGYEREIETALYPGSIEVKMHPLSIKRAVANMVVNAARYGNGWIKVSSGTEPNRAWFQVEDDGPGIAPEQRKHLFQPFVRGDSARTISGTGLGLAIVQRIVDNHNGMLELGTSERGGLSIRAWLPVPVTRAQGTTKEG

SMILES strings stand for the structures. Only a part is listed here, and it is no random draw. Most entries show no effect beyond the scatter of the controls.
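Also: lysate desalted by size exclusion to strip endogenous ATP, peptide intensities built from DIA-NN precursor signals, and peptides missing any value discarded before comparison.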

This assay has as its target UniProt P0AEJ4. The experiment in a line: log2 fold change of tryptic peptide abundance, ligand vs vehicle (limited proteolysis) (log2 ratio); higher = more trypsin-susceptible (destabilized). The settings on record: peptide sequence: EYGASEVR; peptide start residue: 207; ligand concentration: 5 mM; sample: E. coli desalted lysate; replicate design: treated before aliquoting. The protocol: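 HT-PELSA: desalted E. coli K-12 BW25113 lysate (with 12 mM MgCl2) incubated with 5 mM ATP (pH 7) or water for 30 min at 25 C, then a 4 min trypsin pulse at 22 C. Peptides were quantified by DIA-MS (4 replicates). Value is the peptide log2 fold change (treated/control); negative = stabilized. Scale: negative = ligand-stabilized region.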
On to `Nc1ncnc2c1ncn2[C@@H]1O[C@H](COP(=O)(O)OP(=O)(O)OP(=O)(O)O)[C@@H](O)[C@H]1O` [adenosine 5'-triphosphate], for which the log2 fold change is -0.435.
